Several values for one entry are separate records, joined by “and”; a condition that tells them apart may be missing. Equal values may be shown once. This is one part of the list. These are further read-outs of the screen, such as a control signal, another cell line or another target. No call is given for them. Compounds called inactive in the main read-out are mostly missing here. Words in brackets tell the shape of the fitted curve; partial curves, single points and poor fits give uncertain potencies.
Assay: qHTS Assay for Modulators of Lamin A Splicing
Details: HeLa LMNA splicing GFP/RFP minigene ratio, 48 h
Summary of the method: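 S3 HeLa cells stably expressing lamin A-EGFP splicing minigene plus DsRed2, 600 cells/well, 48 h compound exposure at 37C. Laser-scanning cytometry; analysed as GFP (500-530 nm)/RFP (575-640 nm) total intensity ratio; 0.5% DMSO vehicle.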

[1] = measured here: GFP splicing reporter channel
[2] = measured here: RFP viability control channel

Compound | AC50 [1] | AC50 [2]
CCc1ccc(-c2nc(CN3CCC(C(=O)N4CCN(c5ccccc5)CC4)CC3)c(C)o2)cc1 | 12.6 µM [rising, partial curve] | 35.5 µM [rising, single point]
Cc1nccn1-c1cc(C(C)(C)C)nc2c(-c3ccccc3)cnn12 | – | 0.00398 µM [rising, full curve, poor fit]
O=C(NC(=O)N1CCOCC1)c1ccccc1 | 0.0126 µM [falling, full curve, poor fit] | –
Brc1cccc(CNCCCN2CCOCC2)c1 | 35.5 µM [falling, single point] | –
S=C(NCc1ccco1)Nc1ccc(Br)cc1Cl | 0.00562 µM [falling, full curve, poor fit] | 0.00447 µM [falling, full curve, poor fit]
N#Cc1cc2c(nc1SCC(=O)N1CCCCC1)CCCCC2 | 15.8 µM [rising, partial curve] | –
COc1cc2[nH]c(=S)n(Cc3cccs3)c(=O)c2cc1OC | – | 5.01 µM [rising, full curve, poor fit]
Oc1c(Cl)cc(Cl)cc1Sc1cc(Cl)cc(Cl)c1O | 6.31 µM [rising, single point] | 5.62 µM [rising, single point] and 3.16 µM [rising, single point]
Cc1ccccc1OCC(=O)NC(=S)Nc1ccc(Br)c(C)n1 | 3.98 µM [rising, partial curve, poor fit] | –
CNC(=O)NC1CCCCc2sccc21 (stereo not given) | – | 5.62 µM [falling, partial curve]
C=CCc1ccccc1OCC(O)CNC(C)C (stereo not given) | 11.2 µM [falling, single point] and 20 nM [falling, full curve, poor fit] | 15.8 µM [falling, single point] and 6.31 nM [falling, full curve, poor fit]
CCCC[n+]1ccn(C2=C([O-])c3ccccc3C(=O)/C2=N\S(=O)(=O)c2ccc(Br)cc2)c1 | 15.8 µM [rising, partial curve] | 10 µM [rising, partial curve]
Cn1c(C(=O)N2CCN(c3cccc(C(F)(F)F)c3)CC2)cc2sccc21 | 17.8 µM [rising, partial curve] | 15.8 µM [rising, partial curve]
CCc1ccc(N(C(=O)c2csnn2)C(C(=O)NC(C)(C)C)c2ccccn2)cc1 (stereo not given) | 3.16 µM [rising, full curve] | –
c1ccc(-n2nnnc2SCc2cccc(CSc3nnnn3-c3ccccc3)n2)cc1 | – | 12.6 µM [rising, single point]
COc1ccc(Cn2c(C)c(C)c(C#N)c2NC(=O)Nc2cccc(Cl)c2)cc1 | 20 µM [rising, single point] | 31.6 µM [rising, single point]
COCCNC(=S)N1CCN(S(C)(=O)=O)CC1 | 3.16 µM [rising, full curve, poor fit] | –
O=C(COc1ccccc1)Nc1ccc2nc(SCC(=O)N3CCCC3)sc2c1 | 35.5 µM [falling, single point] | –
CCOC(=O)c1cc(C)sc1NC(=O)C(c1ccccc1)c1ccccc1 | – | 0.02 µM [falling, full curve, poor fit]
CN(CCN1CCOCC1)Cc1nc(-c2cccs2)no1 | – | 6.31 µM [falling, partial curve, poor fit]
Cc1ccccc1CC1(CO)CCCN(C(=O)c2ccccc2N(C)C)C1 (stereo not given) | – | 0.0447 µM [falling, full curve, poor fit]
CCCCOc1ccc(CC(=O)NO)cc1 | 0.355 µM [falling, full curve, poor fit] | –
Cn1nc(-c2ccc(OCC(=O)NCC3CCCO3)cc2)c2ccccc2c1=O (stereo not given) | – | 12.6 µM [rising, partial curve]
CN(C)c1ccc(/C=C2\C(=O)Nc3ccccc32)cc1 | 35.5 µM [falling, single point] | –
CCOC(=O)CNc1nc(C(C)(C)C)nc2c1nnn2Cc1ccccc1Cl | 14.1 µM [rising, single point] | 35.5 µM [rising, single point]
CCN(CCCNC(=O)c1[nH]c(C)c(C(C)=O)c1C)c1cccc(C)c1 | – | 14.1 µM [rising, single point]
Cc1cccc(NC2=C(NC(=O)c3ccccc3)C(=O)c3ccccc3C2=O)c1 | – | 15.8 µM [rising, partial curve]

Shown as labelled records: four of the compounds above
Brc1cccc(CNCCCN2CCOCC2)c1
  AC50 [1]: 35.5 µM [falling, single point]
CCOC(=O)c1cc(C)sc1NC(=O)C(c1ccccc1)c1ccccc1
  AC50 [2]: 0.02 µM [falling, full curve, poor fit]
CN(CCN1CCOCC1)Cc1nc(-c2cccs2)no1
  AC50 [2]: 6.31 µM [falling, partial curve, poor fit]
CN(C)c1ccc(/C=C2\C(=O)Nc3ccccc32)cc1
  AC50 [1]: 35.5 µM [falling, single point]

(cont.)

Compound | AC50 [1] | AC50 [2]
CN(C)S(=O)(=O)c1cccc(C(=O)Nc2cc(Cl)cc(Cl)c2)c1 | – | 35.5 µM [rising, single point]
CS(=O)(=O)Nc1cccc(-c2nc(-n3ccnc3)c3ccccc3n2)c1 | 17.8 µM [falling, partial curve] | 35.5 µM [falling, single point]
COC(=O)c1nc(N)sc1C | 0.891 µM [falling, partial curve] | –
COc1ccccc1C(=O)/C=C/c1ccc(N2CCCCC2)c([N+](=O)[O-])c1 | 35.5 µM [falling, single point] | 3.98 µM [falling, single point]
O=C(CN1CCN(c2ccc(Cl)cc2)CC1)Nc1ccc(F)c(F)c1 | 0.01 µM [falling, full curve, poor fit] | 0.0112 µM [falling, full curve, poor fit]
Cc1ccccc1OCC(O)CN1CCN(C)CC1 (stereo not given) | 3.98 µM [rising, partial curve] | 3.98 µM [rising, single point]
CCOC(=O)c1oc2ccc(S(=O)(=O)n3nc(-c4ccccc4)cc3N)cc2c1C | – | 31.6 µM [rising, single point]
CCOC(=O)C1(CCC(C)C)CC(CSc2nc3ccccc3[nH]2)OC1=O (stereo not given) | – | 12.6 µM [rising, single point]
O=C(CN1CCN(c2ccccc2)CC1)Nc1ccc(OCc2ccccc2)cc1 | 35.5 µM [rising, single point] | 35.5 µM [rising, single point]
Cc1cc(C)nc(N2CCC(C(=O)N3CCN(c4cc(Cl)ccc4C)CC3)CC2)n1 | – | 12.6 µM [rising, single point]
COc1ccc(-c2cc(C(=O)N/N=C/c3ccc4c(c3)OCO4)c3ccccc3n2)c(OC)c1 | 14.1 µM [rising, single point] | 12.6 µM [rising, single point]
CC(C)CCNC(=O)c1ccc2c(c1)N(C)C(=O)c1ccccc1S2 | 0.00501 µM [falling, full curve, poor fit] | 0.00447 µM [falling, full curve, poor fit]
O=C(C1=C(O)C(=O)N(Cc2cccnc2)C1c1ccccn1)c1cccs1 (stereo not given) | 0.794 µM [rising, full curve, poor fit] | 0.447 µM [rising, full curve, poor fit]
CC(C)=CCC/C(C)=C/CC(C)(C)CNCCN1CCNCC1 | 35.5 µM [falling, single point] | 35.5 µM [falling, single point]
CCOc1cc2[nH]c(=O)n(CCCCCC(=O)NC(C)CC)c(=O)c2cc1OCC (stereo not given) | – | 5.62 µM [falling, partial curve, poor fit]
Cc1cc(C)cc(NC(=O)c2ccc(Cn3nc(C)c(Cl)c3C)o2)c1 | 12.6 µM [rising, single point] | 17.8 µM [rising, partial curve]
Cc1ccc(C)c(NC(=O)CCc2ccc(S(=O)(=O)NC3CCCCC3)cc2)c1 | – | 12.6 µM [rising, single point]
CCCCCCCCCCCCCCCCO | 35.5 µM [falling, single point] | 0.355 µM [rising, full curve, poor fit]
Cc1ccc(C(=O)CC2(O)C(=O)N(Cc3ccccc3)c3ccc(Br)cc32)cc1 (stereo not given) | – | 35.5 µM [falling, single point]
Nc1cccc(Nc2nc(OC(C(F)(F)F)C(F)(F)F)nc(OC(C(F)(F)F)C(F)(F)F)n2)c1 | 20 µM [falling, single point] | 35.5 µM [falling, single point]
Cc1ccc(-c2[nH]ncc2/C=C(\C#N)C(=O)NC2CCCCC2)cc1 | 10 µM [rising, partial curve] | 10 µM [rising, partial curve]
O=C(O)c1ccccc1N/N=C/c1c(Sc2nnnn2-c2ccccc2)nc2ccccn2c1=O | 0.355 µM [rising, full curve, poor fit] | –
CCc1cc2c(NCC3CCCO3)ncnc2s1 (stereo not given) | 20 µM [rising, single point] | 35.5 µM [rising, single point]
Cc1ccc2nc(=O)c(NNc3ccccc3)cnc2c1 | 31.6 µM [rising, single point] | 12.6 µM [rising, single point]
NS(=O)(=O)c1ccc(NC(=O)COC(=O)c2cnccn2)cc1 | 0.708 µM [rising, single point] | 0.501 µM [rising, single point]
CCOc1ccccc1CNC(=O)CCn1cccn1 | 0.0562 µM [falling, full curve, poor fit] | 0.0562 µM [falling, full curve]
Cc1noc(C)c1-c1ccc2ncnc(Nc3ccccc3)c2c1 | 14.1 µM [falling, partial curve] | 2.51 µM [falling, partial curve, poor fit]
